Compound in the assay: Cc1cc(ccc1-c1ccccc1)C(=O)N1CCCN(CC1)C(=O)CCl [compound 10]
Briefly: probe-labelled cysteine peptide fold change vs DMSO (competition) (log2 fold change); higher = less target engagement (more negative = stronger competition). To be noted: THP-1, incubation time: 4 h.

Protein sequences, listed by entry. Tags and fused reporters are not part of them. Lines headed by an entry give the natural chain unless they say otherwise; changes in a name come on top.
UniProt P52788: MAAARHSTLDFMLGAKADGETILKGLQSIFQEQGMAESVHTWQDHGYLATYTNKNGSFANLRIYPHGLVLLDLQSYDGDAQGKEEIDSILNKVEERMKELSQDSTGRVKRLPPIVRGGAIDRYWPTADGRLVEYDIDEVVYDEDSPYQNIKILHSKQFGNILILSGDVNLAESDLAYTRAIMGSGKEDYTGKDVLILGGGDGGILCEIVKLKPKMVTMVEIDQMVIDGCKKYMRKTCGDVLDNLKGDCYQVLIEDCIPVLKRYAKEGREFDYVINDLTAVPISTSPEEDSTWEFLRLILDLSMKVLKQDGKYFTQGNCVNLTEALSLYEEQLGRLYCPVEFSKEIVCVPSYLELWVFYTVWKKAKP
UniProt Q14683: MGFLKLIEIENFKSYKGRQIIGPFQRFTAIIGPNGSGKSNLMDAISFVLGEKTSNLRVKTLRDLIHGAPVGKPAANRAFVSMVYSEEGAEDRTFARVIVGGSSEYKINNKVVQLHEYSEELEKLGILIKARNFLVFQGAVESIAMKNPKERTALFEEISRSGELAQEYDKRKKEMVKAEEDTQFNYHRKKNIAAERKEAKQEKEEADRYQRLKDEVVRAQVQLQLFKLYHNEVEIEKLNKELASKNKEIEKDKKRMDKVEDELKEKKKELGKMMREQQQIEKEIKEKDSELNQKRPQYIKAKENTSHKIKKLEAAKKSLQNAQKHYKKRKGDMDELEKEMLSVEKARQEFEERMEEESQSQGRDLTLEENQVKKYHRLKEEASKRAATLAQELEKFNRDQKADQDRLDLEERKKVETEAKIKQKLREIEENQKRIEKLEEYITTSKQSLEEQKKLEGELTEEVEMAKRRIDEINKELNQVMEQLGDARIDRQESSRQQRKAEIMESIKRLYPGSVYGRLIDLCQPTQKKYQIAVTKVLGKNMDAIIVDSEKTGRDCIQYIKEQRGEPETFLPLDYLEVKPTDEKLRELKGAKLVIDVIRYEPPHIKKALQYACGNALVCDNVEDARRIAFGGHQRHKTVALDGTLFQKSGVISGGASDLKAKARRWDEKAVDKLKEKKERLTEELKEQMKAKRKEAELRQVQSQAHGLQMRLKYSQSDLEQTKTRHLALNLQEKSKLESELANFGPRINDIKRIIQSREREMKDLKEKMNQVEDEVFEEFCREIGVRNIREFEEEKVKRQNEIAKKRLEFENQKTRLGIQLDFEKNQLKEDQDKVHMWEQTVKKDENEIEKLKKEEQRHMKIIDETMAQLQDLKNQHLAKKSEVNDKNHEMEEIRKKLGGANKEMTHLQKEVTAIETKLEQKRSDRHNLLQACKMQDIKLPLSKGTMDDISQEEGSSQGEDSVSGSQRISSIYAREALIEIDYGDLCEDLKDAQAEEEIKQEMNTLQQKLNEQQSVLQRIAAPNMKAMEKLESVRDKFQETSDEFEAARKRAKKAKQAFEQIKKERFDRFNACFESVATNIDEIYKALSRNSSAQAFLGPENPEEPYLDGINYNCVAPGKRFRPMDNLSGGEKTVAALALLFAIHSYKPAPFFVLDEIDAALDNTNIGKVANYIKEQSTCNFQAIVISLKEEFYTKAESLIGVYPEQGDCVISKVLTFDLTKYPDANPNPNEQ
UniProt O60264, whole entry, looked up: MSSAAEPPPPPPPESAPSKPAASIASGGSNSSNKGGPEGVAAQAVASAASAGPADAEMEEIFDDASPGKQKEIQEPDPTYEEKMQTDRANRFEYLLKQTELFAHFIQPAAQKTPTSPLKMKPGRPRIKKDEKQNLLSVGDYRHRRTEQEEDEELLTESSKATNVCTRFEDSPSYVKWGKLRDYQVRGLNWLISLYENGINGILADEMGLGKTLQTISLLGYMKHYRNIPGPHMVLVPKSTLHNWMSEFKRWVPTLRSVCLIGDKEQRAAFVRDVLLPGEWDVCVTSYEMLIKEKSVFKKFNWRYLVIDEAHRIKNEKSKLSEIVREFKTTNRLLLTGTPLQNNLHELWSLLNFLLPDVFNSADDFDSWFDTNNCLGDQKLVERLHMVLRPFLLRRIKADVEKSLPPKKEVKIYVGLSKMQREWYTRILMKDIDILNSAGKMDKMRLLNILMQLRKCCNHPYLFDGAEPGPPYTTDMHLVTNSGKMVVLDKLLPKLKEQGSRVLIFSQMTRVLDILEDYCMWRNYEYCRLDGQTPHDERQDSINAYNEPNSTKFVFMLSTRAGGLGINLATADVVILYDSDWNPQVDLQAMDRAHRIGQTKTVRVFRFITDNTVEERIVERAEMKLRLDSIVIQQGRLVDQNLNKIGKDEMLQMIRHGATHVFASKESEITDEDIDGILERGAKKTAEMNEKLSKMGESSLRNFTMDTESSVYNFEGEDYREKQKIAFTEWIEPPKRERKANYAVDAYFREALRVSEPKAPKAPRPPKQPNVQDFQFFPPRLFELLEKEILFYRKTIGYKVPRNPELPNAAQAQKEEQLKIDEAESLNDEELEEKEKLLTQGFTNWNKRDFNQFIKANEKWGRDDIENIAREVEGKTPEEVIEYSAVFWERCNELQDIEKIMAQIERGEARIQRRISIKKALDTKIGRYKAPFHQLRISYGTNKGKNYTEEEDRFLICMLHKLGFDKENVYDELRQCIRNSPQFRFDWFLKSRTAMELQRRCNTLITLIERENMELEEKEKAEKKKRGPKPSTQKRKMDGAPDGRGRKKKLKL
UniProt Q6GMV2: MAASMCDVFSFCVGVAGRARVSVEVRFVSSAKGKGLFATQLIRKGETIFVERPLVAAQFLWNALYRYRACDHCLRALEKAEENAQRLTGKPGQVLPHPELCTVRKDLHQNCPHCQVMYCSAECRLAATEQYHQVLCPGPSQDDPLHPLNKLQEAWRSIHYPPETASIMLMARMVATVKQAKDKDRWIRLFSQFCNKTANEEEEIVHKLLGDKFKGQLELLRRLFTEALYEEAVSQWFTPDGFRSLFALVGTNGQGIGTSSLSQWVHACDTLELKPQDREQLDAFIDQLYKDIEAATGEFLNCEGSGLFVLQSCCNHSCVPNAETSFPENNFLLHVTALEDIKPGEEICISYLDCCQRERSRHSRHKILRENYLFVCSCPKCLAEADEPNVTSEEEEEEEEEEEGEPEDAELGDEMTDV
UniProt Q9UPR3: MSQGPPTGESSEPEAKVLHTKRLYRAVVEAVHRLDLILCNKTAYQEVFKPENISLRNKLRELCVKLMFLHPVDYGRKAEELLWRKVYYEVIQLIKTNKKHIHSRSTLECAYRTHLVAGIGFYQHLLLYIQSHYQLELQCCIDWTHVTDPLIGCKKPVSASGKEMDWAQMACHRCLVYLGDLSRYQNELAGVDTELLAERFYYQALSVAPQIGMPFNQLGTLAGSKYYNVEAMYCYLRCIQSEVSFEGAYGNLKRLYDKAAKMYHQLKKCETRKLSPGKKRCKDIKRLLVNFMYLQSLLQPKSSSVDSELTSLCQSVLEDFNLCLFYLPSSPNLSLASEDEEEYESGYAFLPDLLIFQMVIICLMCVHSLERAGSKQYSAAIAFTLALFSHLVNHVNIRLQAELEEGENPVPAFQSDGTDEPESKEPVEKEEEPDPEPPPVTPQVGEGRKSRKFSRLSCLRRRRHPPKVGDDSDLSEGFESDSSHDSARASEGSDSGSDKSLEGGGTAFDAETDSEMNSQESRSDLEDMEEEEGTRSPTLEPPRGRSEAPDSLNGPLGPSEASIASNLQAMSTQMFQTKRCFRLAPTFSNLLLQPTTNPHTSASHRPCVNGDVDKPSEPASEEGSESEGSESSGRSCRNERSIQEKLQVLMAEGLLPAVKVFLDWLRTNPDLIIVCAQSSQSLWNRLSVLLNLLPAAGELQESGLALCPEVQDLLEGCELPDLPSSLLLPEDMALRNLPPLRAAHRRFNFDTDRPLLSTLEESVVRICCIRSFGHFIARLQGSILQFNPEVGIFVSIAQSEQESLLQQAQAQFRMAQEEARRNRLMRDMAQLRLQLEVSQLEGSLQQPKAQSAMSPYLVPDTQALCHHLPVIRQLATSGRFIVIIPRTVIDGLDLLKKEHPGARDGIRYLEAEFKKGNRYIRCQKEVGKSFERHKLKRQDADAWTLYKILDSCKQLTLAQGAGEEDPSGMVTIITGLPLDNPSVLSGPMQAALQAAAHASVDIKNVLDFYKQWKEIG
UniProt O60906: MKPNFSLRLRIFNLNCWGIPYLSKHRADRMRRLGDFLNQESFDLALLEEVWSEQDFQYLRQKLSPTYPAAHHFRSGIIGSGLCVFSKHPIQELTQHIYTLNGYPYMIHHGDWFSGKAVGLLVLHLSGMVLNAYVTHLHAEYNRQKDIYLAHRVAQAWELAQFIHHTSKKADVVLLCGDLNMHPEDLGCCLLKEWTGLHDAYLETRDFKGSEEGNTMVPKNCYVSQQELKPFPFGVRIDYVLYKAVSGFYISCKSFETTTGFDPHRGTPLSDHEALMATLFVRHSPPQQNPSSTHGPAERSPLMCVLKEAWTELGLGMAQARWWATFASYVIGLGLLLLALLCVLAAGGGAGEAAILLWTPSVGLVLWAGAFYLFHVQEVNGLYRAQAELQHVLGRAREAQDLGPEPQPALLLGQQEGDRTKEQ
UniProt P78383: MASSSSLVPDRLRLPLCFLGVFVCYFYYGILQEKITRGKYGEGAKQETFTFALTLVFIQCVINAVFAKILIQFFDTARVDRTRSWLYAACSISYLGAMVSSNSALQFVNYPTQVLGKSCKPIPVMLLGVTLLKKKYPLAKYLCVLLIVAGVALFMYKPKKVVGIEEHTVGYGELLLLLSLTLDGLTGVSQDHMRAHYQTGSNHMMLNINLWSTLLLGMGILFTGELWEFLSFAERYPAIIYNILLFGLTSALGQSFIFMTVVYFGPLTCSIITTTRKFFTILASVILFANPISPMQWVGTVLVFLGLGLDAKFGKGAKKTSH
UniProt Q9C0K1: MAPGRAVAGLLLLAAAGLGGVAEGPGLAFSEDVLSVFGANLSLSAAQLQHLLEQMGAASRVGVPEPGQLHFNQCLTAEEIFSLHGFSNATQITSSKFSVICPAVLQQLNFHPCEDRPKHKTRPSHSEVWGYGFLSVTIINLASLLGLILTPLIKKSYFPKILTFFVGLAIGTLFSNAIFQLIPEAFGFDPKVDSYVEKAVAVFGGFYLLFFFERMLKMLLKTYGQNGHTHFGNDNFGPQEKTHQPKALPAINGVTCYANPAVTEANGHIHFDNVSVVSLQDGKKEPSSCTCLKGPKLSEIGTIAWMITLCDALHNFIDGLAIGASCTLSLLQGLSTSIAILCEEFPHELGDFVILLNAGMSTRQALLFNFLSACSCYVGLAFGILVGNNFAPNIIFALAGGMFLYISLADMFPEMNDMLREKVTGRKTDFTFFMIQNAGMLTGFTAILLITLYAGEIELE
UniProt Q96DI7: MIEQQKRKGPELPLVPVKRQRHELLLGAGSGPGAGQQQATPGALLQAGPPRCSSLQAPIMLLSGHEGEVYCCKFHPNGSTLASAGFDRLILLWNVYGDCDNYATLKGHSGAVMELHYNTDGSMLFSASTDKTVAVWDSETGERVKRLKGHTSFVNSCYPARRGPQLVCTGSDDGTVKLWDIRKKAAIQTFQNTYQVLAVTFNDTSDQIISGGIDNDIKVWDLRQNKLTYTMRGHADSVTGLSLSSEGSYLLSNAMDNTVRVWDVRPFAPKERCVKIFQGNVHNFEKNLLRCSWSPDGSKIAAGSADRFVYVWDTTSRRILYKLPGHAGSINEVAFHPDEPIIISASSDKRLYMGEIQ
UniProt Q9HAU4, whole entry, looked up: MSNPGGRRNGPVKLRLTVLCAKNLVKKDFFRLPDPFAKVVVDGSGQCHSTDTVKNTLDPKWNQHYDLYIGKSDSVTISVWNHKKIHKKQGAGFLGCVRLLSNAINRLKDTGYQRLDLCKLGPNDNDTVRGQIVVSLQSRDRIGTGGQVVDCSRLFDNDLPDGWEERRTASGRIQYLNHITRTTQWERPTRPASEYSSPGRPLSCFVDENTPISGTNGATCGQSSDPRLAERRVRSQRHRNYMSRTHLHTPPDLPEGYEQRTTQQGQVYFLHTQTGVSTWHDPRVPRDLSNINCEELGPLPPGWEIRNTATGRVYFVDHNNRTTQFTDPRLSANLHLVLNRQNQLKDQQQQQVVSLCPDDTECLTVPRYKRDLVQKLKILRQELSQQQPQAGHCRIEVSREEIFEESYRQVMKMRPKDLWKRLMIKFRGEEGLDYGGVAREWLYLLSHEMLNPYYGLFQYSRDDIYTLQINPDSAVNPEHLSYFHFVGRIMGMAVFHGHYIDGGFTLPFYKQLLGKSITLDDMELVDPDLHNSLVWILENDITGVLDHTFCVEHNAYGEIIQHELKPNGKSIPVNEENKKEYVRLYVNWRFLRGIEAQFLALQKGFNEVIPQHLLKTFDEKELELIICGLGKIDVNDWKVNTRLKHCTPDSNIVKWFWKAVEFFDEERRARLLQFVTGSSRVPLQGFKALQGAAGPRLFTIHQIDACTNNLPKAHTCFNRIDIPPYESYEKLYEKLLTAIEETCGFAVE

This is one part of the list.
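Also: competitive profiling in live THP-1 cells: cysteine peptides tagged with an iodoacetamide desthiobiotin (IA-DTB) probe, intensity after compound treatment relative to DMSO-treated cells.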

In the case of “SLC3A2_P08195_431_WCSWSLSQAR (UniProt P08195)”, the “probe-labelled cysteine peptide fold change” value was -0.11 (10 µM) and 0.147 (50 µM).
In the case of “SNAPC3_Q92966_92_DLDCSLEAAAELR (UniProt Q92966)”, the “probe-labelled cysteine peptide fold change” value reads like this: (10 µM) 0.0062; (50 µM) 0.346.
With “SNRNP200_O75643_502_AALETDENLLLCAPTGAGK (UniProt O75643)”, the “probe-labelled cysteine peptide fold change” value (10 µM) is 0.0328 and the “probe-labelled cysteine peptide fold change” value (50 µM) turned out to be 0.497.
With “SMS_P52788_248_GDCYQVLIEDCIPVLK (UniProt P52788)”, the “probe-labelled cysteine peptide fold change” value by setting is: (10 µM) 0.0426; (50 µM) 0.0386.
For the target “SMC1A_Q14683_933_HNLLQACK (UniProt Q14683)”, the “probe-labelled cysteine peptide fold change” value is 0.0314 (10 µM) and -0.0982 (50 µM).
Regarding “SMARCA5_O60264_457_CCNHPYLFDGAEPGPPYTTDMHLVTNSGK (UniProt O60264)”, the “probe-labelled cysteine peptide fold change” value (10 µM) is -0.00404 and the “probe-labelled cysteine peptide fold change” value (50 µM) came out at 0.0338.
Taken in the same sequence, the figures for “SMYD5_Q6GMV2_378_ENYLFVCSCPK (UniProt Q6GMV2)” were -0.0959 and -0.244.
The like results for “SNRPB_P14678_19_CILQDGR (UniProt P14678)” were, in that order, 0.117 and 0.0825.
The like results for “SMG5_Q9UPR3_39_LDLILCNK (UniProt Q9UPR3)” were, in that order, 0.114 and 0.533.
For the target “SNRNP70_P08621_39_HHNQPYCGIAPYIR (UniProt P08621)”, the “probe-labelled cysteine peptide fold change” value runs as follows: (10 µM) -0.0761; (50 µM) -0.168.
Consider “SNRNP200_O75643_1471_KNVQNINLFVVDEVHLIGGENGPVLEVICSR (UniProt O75643)”, for which the “probe-labelled cysteine peptide fold change” value (10 µM) was 0.443 and the “probe-labelled cysteine peptide fold change” value (50 µM) worked out at 0.176.
Take “SMPD2_O60906_188_KADVVLLCGDLNMHPEDLGCCLLK (UniProt O60906)”: the “probe-labelled cysteine peptide fold change” value (10 µM) is -0.0882 and the “probe-labelled cysteine peptide fold change” value (50 µM) worked out at 0.253.
For “SMG5_Q9UPR3_109_STLECAYR (UniProt Q9UPR3)”, the “probe-labelled cysteine peptide fold change” value by setting is: (10 µM) -0.0866; (50 µM) -0.12.
Turning to “SLC44A1_Q8WWI5_117_SVALCVAACPR (UniProt Q8WWI5)”, the “probe-labelled cysteine peptide fold change” value by setting is: (10 µM) -0.133; (50 µM) -0.0893.
Taken in the same sequence, the figures for “SMARCC1_Q92922_761_VDPTYGLESSCIAGTGPDEPEKLEGAEEEK (UniProt Q92922)” were -0.444 and -0.14.
Turning to “SMN2_Q16637_107_CSAIWSEDGCIYPATIASIDFKR (UniProt Q16637)”, the “probe-labelled cysteine peptide fold change” value by setting is: (10 µM) -0.198; (50 µM) -0.213.
Consider “SMC4_Q9NTJ3_323_NHVCQYYIYELQK (UniProt Q9NTJ3)”, for which the “probe-labelled cysteine peptide fold change” value is 0.0817 (10 µM) and -0.109 (50 µM).
The like results for “SMC5_Q8IY18_229_QLETSCK (UniProt Q8IY18)” were, in that order, -0.019 and -0.0908.
“SLC35B1_P78383_119_SCKPIPVMLLGVTLLK (UniProt P78383)”: the “probe-labelled cysteine peptide fold change” value runs as follows: (10 µM) -0.681; (50 µM) 0.072.
For “SLC39A8_Q9C0K1_101_FSVICPAVLQQLNFHPCEDRPK (UniProt Q9C0K1)”, the “probe-labelled cysteine peptide fold change” value runs as follows: (10 µM) 0.00167; (50 µM) 0.168.
Regarding “SMARCC1_Q92922_462_SVDLGEDNVTEQTNHIIIPSYASWFDYNCIHVIER (UniProt Q92922)”, the “probe-labelled cysteine peptide fold change” value (10 µM) was -0.0743 and the “probe-labelled cysteine peptide fold change” value (50 µM) is -0.235.
Regarding “SNRNP40_Q96DI7_99_LILLWNVYGDCDNYATLK (UniProt Q96DI7)”, the “probe-labelled cysteine peptide fold change” value runs as follows: (10 µM) 0.0915; (50 µM) 0.303.
As to “SMC3_Q9UQE7_972_KLEQCNTELK (UniProt Q9UQE7)”, the “probe-labelled cysteine peptide fold change” value (10 µM) worked out at 0.0921 and the “probe-labelled cysteine peptide fold change” value (50 µM) worked out at 0.174.
The like results for “SMPD4_Q9NXE4_698_QLPDCIVGEDGLILTPLGR (UniProt Q9NXE4)” were, in that order, 0.0446 and 0.108.
The like results for “SLC39A8_Q9C0K1_113_FSVICPAVLQQLNFHPCEDRPK (UniProt Q9C0K1)” were, in that order, -0.103 and -0.0399.
Regarding “SMAD5_Q99717_110_WPDLQSHHELKPLDICEFPFGSK (UniProt Q99717)”, the “probe-labelled cysteine peptide fold change” value (10 µM) is -0.00397 and the “probe-labelled cysteine peptide fold change” value (50 µM) was -0.103.
For the target “SMURF2_Q9HAU4_47_VVVDGSGQCHSTDTVK (UniProt Q9HAU4)”, the “probe-labelled cysteine peptide fold change” value reads like this: (10 µM) 0.0963; (50 µM) -0.248.
For “SMCHD1_A6NHR9_1018_IEIPSCK (UniProt A6NHR9)”, the “probe-labelled cysteine peptide fold change” value was -0.18 (10 µM) and 0.0615 (50 µM).
For “SNRNP40_Q96DI7_168_GPQLVCTGSDDGTVK (UniProt Q96DI7)”, the “probe-labelled cysteine peptide fold change” value runs as follows: (10 µM) -0.00336; (50 µM) 0.0777.
Take “SMC1A_Q14683_523_LIDLCQPTQK (UniProt Q14683)”: the “probe-labelled cysteine peptide fold change” value (10 µM) came out at 0.0226 and the “probe-labelled cysteine peptide fold change” value (50 µM) was determined as 0.15.

The values are drawn from the supplement of paper PMC12067093, “Discovery and optimisation of a covalent ligand for TRIM25 and its application to targeted protein ubiquitination” (Chemical Science, 2025).
